Among the data in publication PMC12624062 are binding values, retold here.

Sequences of proteins named here, by UniProt entry; tags and fusion partners are left off.
UniProt Q8CDG1: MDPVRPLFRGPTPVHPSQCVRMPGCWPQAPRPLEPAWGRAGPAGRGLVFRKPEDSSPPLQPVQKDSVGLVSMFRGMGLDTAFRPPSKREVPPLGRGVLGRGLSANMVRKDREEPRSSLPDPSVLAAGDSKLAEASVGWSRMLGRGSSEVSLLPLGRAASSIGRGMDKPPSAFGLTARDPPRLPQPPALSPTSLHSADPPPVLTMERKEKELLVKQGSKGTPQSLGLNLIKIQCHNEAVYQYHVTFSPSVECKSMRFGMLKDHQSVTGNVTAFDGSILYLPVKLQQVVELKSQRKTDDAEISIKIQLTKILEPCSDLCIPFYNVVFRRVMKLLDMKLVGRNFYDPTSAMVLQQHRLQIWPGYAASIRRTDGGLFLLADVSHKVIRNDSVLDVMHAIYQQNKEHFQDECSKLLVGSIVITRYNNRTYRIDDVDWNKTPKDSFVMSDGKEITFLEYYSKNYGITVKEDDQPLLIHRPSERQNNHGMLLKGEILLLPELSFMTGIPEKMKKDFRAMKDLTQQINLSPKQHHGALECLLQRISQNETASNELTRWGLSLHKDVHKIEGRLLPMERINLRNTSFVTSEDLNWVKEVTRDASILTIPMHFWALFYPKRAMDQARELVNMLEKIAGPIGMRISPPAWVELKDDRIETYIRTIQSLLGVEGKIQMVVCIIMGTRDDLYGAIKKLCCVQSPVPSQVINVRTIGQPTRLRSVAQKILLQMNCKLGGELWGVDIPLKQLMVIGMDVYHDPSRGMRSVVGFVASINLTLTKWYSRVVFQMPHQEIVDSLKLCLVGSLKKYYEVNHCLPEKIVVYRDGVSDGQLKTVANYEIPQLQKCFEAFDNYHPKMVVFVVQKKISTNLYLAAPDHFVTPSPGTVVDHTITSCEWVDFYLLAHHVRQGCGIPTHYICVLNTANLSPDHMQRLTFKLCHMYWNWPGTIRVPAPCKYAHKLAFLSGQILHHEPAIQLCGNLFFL

In assay [1] the target is PIWIL2 (endogenous, mouse testis) (mouse (endogenous in testis)) (UniProt Q8CDG1). As to the kind of experiment: affinity purification with mass spectrometry; P20 wild-type mouse testis lysates; IP with PIWIL2, ASZ1 or TDRD1 antibodies against rabbit IgG control; Protein A/G agarose; LC-MS; n = 3.
The target in assay [2] is T1, ASZ1 (endogenous, mouse testis) (mouse (endogenous in testis)) (UniProt Q8VD46).
T1 sequence: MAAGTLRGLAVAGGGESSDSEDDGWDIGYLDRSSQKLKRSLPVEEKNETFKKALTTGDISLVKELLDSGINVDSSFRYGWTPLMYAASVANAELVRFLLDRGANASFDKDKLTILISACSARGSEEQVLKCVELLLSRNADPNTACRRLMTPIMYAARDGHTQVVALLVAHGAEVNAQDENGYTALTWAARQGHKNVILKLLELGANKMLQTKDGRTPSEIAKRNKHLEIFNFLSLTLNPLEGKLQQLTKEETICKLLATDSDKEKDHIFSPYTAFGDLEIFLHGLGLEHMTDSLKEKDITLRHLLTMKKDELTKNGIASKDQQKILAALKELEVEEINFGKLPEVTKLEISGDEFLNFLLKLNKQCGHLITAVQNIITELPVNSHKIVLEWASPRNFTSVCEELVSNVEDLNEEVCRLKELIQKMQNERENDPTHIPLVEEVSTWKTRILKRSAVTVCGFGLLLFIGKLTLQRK
Described as above.

Results are given in words; binding and its absence hold for the method and conditions named. In cells and extracts the contact can be indirect. These calls come from enrichment with a bait or labelling near it, and not all partners need be listed.

B1: TDRD1 (endogenous, mouse testis) (protein, UniProt Q99MV1 1-1172)
chain: MMPRNNLEASTCKMAEPFNFEKKESKPPPQDPLRSPVAQHNHPTFRLKSPENGNTKNNFLLCEQNKQYLASQEDSSVVSSNPAVVNGEVGGSKGDRKPPPTGNPVSPLSLGNSSPPNQVKTKPSSNVTPEKSKKSHKLFENALSVNNPALFNSLGPPLRSTTCHRCGLFGSLRCSQCKQTYYCSTACQRRDWSSHSTICRPVQQSLNKLEDNKSPFETKAIEVKSEVDCPPGVTKEITAGAERVMFSDLRSLQLKKTMEIKGTVTEFKHPSNFYIQLYSSEVLENMNQLSTSLKETYANVVPEDGYLPVKGEVCVAKYTVDQTWNRAIVQAVDVLQRKAHVLYIDYGNEEMIPIDSVHPLSRGLDLFPPSAIKCCVSGVIPTAGEWSEGCVAAVKALLFEQFCSVKVMDILEEEVLTCAVDLVLQSSGKQLDHVLVEMGYGVKPGEQSSTEQSVDHSALEDVGRVTVESKIVTDRNALIPKVLTLNVGDEFCGVVAHIQTPEDFFCQQLQSGHKLAELQESLSEYCGHVIPRSDFYPTIGDVCCAQFSEDDQWYRASVLAYASEESVLVGYVDYGNFEILSLKRLCPIIPKLLDLPMQALNCVLAGVKPSLGIWTPEAVCVMKEMVQNRMVTVRVVGMLGTRALVELIDKSVAPHVSASKALIDSGFAIKEKDVADKGSSMHTASVPLAIEGPAEALEWTWVEFTVDETVDVVVCMMYSPGEFYCHFLKDDALEKLDDLNQSLADYCAQKPPNGFKAEIGRPCCAFFSGDGNWYRALVKEILPSGNVKVHFVDYGNVEEVTTDQLQAILPQFLLLPFQGMQCWLVDIQPPNKHWTKEATARFQACVVGLKLQARVVEITANGVGVELTDLSTPYPKIISDVLIREQLVLRCGSPQDSLMSRPANQHKQIDSHRVQASPSAEQWKTMELPVNKTIAANVLEIISPALFYAIPSEMSENQEKLCVLAAELLEHCNAQKGQPAYRPRTGDACCAKYTNDDFWYRAIVLETSESDVKVLYADYGNIETLPLSRVQPIPASHLELPFQIIRCSLEGPMELNGSCSQLVMELLRNAMLNQSVVLSVKAISKNVHAVSVEKCSENGMINIAENLVMCGLAENLTSKRKSASTKEIPHSRDCCCTELQKQIEKHEQILLFLLNNPTNQSKFTEMKKLLRS
Turning to B1, the binding entry in assay [1] is “binds”.

B2: GPAT2 (endogenous, mouse testis) (protein, UniProt Q14DK4 1-801)
chain: MDTMLKSNPQTQQRSNHNGQETSLWSSSFGMKMEAITPFLGKYRPFMGRCCQTCTPKSWESLFHRSIMDLGFCNVILVKEENTRFRGWLVRRLCYFLWSLEQHIPTSFDASQKIMENTGVQNLLSGRVPGAAGEGQAPELVKKEVQRILGHIQTTPRPFLLRLFSWALLWFLNRLFLNVQLHKGQMKMVQKAVQEGSPLVFLSTHKSLLDGFLLPFVLFSQGLGVVRVALDSRTCSPALRALLRKLGGLFLPPEVNLSLDNSEGILARAVVRATVEELLTSGQPLLIFLEEPPGSPGPRLSALGQAWLGVVIQAVQAGIISDATLVPVAIAYDLVPDAPCNMNHDLAPLGLWTGALAVFRRLCNCWGCNRRVCVRVHLAQPFSLQEYTINARSCWDSRQTLEHLLQPIVLGECSVVPDTEKEQEWTPPTGLLLALKEEDQLLVRRLSRHVLSASVASSAVMSTAIMATLLLLKHQKGVVLSQLLGEFSWLTEETLLRGFDVGFSGQLRCLAQHTLSLLRAHVVLLRVHQGDLVVVPRPGPGLTHLARLSMELLPTFLSEAVGACAVRGLLAGRVPPEGPWELQGIELLSQNELYRQILLLLHLLPQDLLLPQPCQSSYCYCQEVLDRLIQCGLLVAEETPGSRPACDTGRQHLSAKLLWKPSGDFTDSESDDFEEPGGRCFRLSQQSRCPDFFLFLCRLLSPILKAFAQAATFLHLGQLPDSEVAYSEKLFQFLQACAQEEGIFECADPNLAISAVWTFKDLGVLQEMPSPTGPQLHLSPTFATRDNQDKLEQFIRQFICS
B2: in assay [2], the binding result was “binds”.

B3: ASZ1 (endogenous, mouse testis) (protein, UniProt Q8VD46 1-475)
chain: MAAGTLRGLAVAGGGESSDSEDDGWDIGYLDRSSQKLKRSLPVEEKNETFKKALTTGDISLVKELLDSGINVDSSFRYGWTPLMYAASVANAELVRFLLDRGANASFDKDKLTILISACSARGSEEQVLKCVELLLSRNADPNTACRRLMTPIMYAARDGHTQVVALLVAHGAEVNAQDENGYTALTWAARQGHKNVILKLLELGANKMLQTKDGRTPSEIAKRNKHLEIFNFLSLTLNPLEGKLQQLTKEETICKLLATDSDKEKDHIFSPYTAFGDLEIFLHGLGLEHMTDSLKEKDITLRHLLTMKKDELTKNGIASKDQQKILAALKELEVEEINFGKLPEVTKLEISGDEFLNFLLKLNKQCGHLITAVQNIITELPVNSHKIVLEWASPRNFTSVCEELVSNVEDLNEEVCRLKELIQKMQNERENDPTHIPLVEEVSTWKTRILKRSAVTVCGFGLLLFIGKLTLQRK
Turning to B3, in assay [1], the binding entry was “binds”.

B4: TDRD7 (endogenous, mouse testis) (protein, UniProt Q8K1H1 1-1086)
chain: MLEADLVSKMLRAVLQSHKNGIVLPRLQGEYRSLTGDWIPFKQLGYPTLEAYLRSVPAVVRIEASRSGEIVCYAVACTETARIAQLVARQRTSKRKIGRQINCQMRVKKAMPFFLEGKPKATLRQPGFASDYSISRKPNSALLRDRGSALGVKADVDMPPYPDTPVQRHASMSANSRFSPKSSLPASFQTHISRACPTEVNDNLNQTVEKPNITPPASYTNKMDEVQNRIKEILDKHNNGIWISKLPHFYKEFYKEDLNQGVLQQFEHWPHICTVEKPCGGGQDSLLYPARREQPLKSDQDPEKELPPPPPAPKQEVPSQGSPAVMPDVKEKVAELLGKYSSGLWASALPKAFEDMYKVKFPEDALKNLASLSDVCTINYISGNTQKAILYAKLPLPTDKILKDEGQAQGDFDIKSMIEQEYLQIEKNMAESADEFLEDITVPPLVIPTEASPSVLVVELSNTNDVVIRYVGKDYSAAQELMEDEMKEFYSKNPRVTPIQTVHVGQLLAVNAEEDAWLRAQIISTDENKIKVCYVDYGFCENIEKSKAYRLNPRFCSLSFQATKCKLAGLEVLNDDPDLVKAVESLTCGKIFAVEILDKSDVPLVVLYDTSGEDDININATCLKAICDRSLQVHLQVDAMYTNVKVTNICSDGTLYCQVPCKGLNKLNDLLHKTEDYFHCKHMTSEYFISLPFCGKICLFHCKGKWLRVEITNVHSSRALDVQFLDSGNSTSVKVSELREIPPRFLQEMLAIPPQAIKCCLADLPQSIGMWTPDAVLWLRDSVLNCSDCSIKVTKMDETKGVAYVYLFTPNNFPDPHRSINRQITNADLWKHQKDVFLSAVSTAASSPGNRNGGTPAPGSPAESLRKSHPEVIKKSVLDHTSSFSLEELPPPVHLSRSGEHMDVYVPVACHPGHFVIQPWQEIHKLEVLMEEMILYYSVSEERHIAVERDQVYAAKVENKWYRVLLKGILTNGLVSVYELDYGKHELVNIRKVQPLVDVFRKLPFQAVTAQLAGVKCSQWSEEASMVFRNHVEKKALVALVQTVVEHTNPWDRKVVLYLVDTSLPDTDTWIHDFMSQYLLELSKVN
Turning to B4, the binding result in assay [1] is reported as “binds”.

B5: PNLDC1 (endogenous, mouse testis) (protein, UniProt B2RXZ1 1-531)
chain: MDVGADEFEQSLPLLQELVAGADFVGLDIEFTGLRSNLSRPQQISLFDLPSEWYLKTRQSVQQFTICQIGLSMFSSIEGESNKYVAHSCNFFLFPTTFGILDSEFSFQASSVQFLNQYGFDYNKFLKNGIPYMNEEQEKKIKHSILRGNWRVRSSLDKDQIKVVIDKVTQWLDLAEEGDQMTLPGIAGFQAFEVQLVLRQALPNIWTVLKEEWVIVKKVSQPQRWYLEHASCDQVSCWKEQILLSARGFSVFFQMLVKAQKPLVGHNMMMDLLHLHEKFFRPLPESYDQFKQNIHSLFPVLIDTKNVTKDIWKELRFPRVSNLLEVYEVLSSNLNPTKDSGPVIIHARQCKKYAETKCPHEAAYDAFLCGSVLLKVAHLLLQRVHGNGAVHEPAFPQYLDVLAPYVNQVNLIRAGVPKINFSGPDYPSIRPPVLILTVKRWPGVSEQQVYREFQNLCKFDVRRFTRSQFLLLTNKFKDARSVLKEYRNHPTLQVSLYRSWRHSPNITCLLQVCSIVTTWAMIAFLLGRPMP
For B5, the binding result in assay [1] was “binds”.

B6: MAEL (endogenous, mouse testis) (protein, UniProt Q8BVN9 1-434)
chain: MPNRRASRNAYYFFVQEKIPELRRRGLPVARVADAIPYCSADWALLREDEKEKYSEMAREWRAAQGKDSGPSEKQKLVSTPLRRPGMLVPKPSISPPDMSNLSIKSDQALLGGIFYFLNIFSHGELPPHCEQRFLPCEIGCVKYSLQEGIMADFHSFIHPGEIPRGFRFHCQAASDSSHKIPISNFEFGHDQATVLQNLYKFIHPNPGNWPPIYCKSDDRARVNWCLKRMERASEIRQDLELLTVEDLVVGIYQQKFLKEPSKTWVRSLLDVAMWDYSSNTRCKWHEENDILFCALAVCKKIAYCISNSLATLFGIQLTGAHVPLQDYEASNSVTPKMVVLDAGRYQKLRVESPGFCHFNSYNQEQRSNTSTGYYPSGVKISGPHSSVRGRGITRLLESISNSSNNIHRFSSCETSLSPYTPQKDGYKPFSSFS
For the molecule B6, the binding result in assay [1] is “binds”.

B7: HENMT1 (endogenous, mouse testis) (protein, UniProt Q8CAE2 1-395)
chain: MEMAESIPCNSVVGGNFKEVSPEKVIRFKPPLYKQRYQFVRDLVDRHEPKKVADLGCGDAKLLKLLKIYPCIQLLVGVDINEEKLHSNGHRLSPYLGEFVKPRDLDLTVTLYHGSVVERDSRLLGFDLITCIELIEHLDSDDLARFPDVVFGYLSPAMVVISTPNAEFNPLFPTVTLRDADHKFEWSRMEFQTWALHVANCYNYRVEFTGVGTPPAGSEHVGYCTQIGVFTKNGGKLSKPSVSQQCDQHVYKPVYTTSYPSLQQEKVLKFVLVGELLIQVDRLRLRYQRMLRDREKDRGPKPGDMDSCPAPHLLLGAVFTEAEKARIESSPKPFCEGEKFYIPLQRLLTYPKLHRLCADEDRVRSLIADSVCLSSDGSAVVVDLHNSWDYRPEEN
Regarding B7, the binding entry in assay [1] is listed as “binds”.
